In article PMC6588571:
These are yes or no findings as the source states them, for the method shown. For part of these data: Binding seen in cells or lysates may run through a third protein. Some results given as binding are weak or reduced against the parent protein; the word gives no strength. Tags and fused reporters may be left off the sequences shown.

The chains behind the UniProt entries cited, without tags or fusion partners. Where a name states a change or a piece, a line headed by the entry shows the natural chain unless it says otherwise.
UniProt P40160: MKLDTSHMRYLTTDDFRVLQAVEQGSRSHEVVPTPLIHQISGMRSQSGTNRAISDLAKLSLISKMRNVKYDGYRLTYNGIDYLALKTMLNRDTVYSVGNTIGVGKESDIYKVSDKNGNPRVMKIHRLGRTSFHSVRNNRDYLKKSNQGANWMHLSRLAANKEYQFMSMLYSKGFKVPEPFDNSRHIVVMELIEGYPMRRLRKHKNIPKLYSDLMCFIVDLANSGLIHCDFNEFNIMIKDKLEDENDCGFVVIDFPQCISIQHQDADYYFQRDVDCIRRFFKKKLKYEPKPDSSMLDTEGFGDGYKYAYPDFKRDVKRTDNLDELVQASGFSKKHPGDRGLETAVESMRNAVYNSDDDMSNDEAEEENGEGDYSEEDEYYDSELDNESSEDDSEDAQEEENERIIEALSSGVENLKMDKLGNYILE

Columns and labels:
[1] = biological target: T1, C-terminally TAP-tagged Tsr1 (S. cerevisiae) (UniProt Q07381); assay: co-IP; Tsr1-TAP pre-40S particles from yeast lysate bound to IgG beads, eluted with TEV protease, western blotting; wild-type, rps20Δloop, rio2.D253A and ltv1 phosphomutant strains; in the ATP assays the bound particles were incubated with or without 1 mM ATP for 30 min at 4 °C (50 mM TRIS pH 7.5, 100 mM NaCl, 5 mM MgCl2, 0.075% NP-40, 1 mM DTT) and washed before elution
T1 sequence: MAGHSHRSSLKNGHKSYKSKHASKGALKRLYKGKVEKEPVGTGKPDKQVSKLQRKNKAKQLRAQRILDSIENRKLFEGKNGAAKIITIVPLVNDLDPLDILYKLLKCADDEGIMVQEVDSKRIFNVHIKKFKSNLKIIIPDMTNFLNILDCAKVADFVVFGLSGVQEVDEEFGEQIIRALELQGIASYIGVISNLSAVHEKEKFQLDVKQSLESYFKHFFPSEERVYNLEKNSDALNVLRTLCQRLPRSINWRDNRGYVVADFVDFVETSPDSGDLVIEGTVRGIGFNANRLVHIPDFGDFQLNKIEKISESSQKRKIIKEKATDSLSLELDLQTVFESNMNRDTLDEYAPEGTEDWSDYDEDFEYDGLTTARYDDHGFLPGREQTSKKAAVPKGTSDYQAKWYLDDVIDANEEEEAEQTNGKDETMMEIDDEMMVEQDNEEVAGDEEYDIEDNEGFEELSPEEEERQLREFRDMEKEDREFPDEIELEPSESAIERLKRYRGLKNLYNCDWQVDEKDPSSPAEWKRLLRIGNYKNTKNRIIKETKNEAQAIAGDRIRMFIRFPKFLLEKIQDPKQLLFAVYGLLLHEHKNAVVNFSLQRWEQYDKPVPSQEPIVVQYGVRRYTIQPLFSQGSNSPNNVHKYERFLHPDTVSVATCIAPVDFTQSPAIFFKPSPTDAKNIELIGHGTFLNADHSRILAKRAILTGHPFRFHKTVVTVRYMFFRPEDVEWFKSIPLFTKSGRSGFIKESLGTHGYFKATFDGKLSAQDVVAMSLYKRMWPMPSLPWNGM

[2] = biological target: T1, C-terminally TAP-tagged Tsr1 (S. cerevisiae); assay: cryo-EM structure; pre-40S particles from rps20Δloop cells purified via Tsr1-TAP (lysis buffer with 5 mM MgCl2) and a 10–30% sucrose gradient; single particle analysis, classes C1-S20Δloop (3.47 Å) and C2-S20Δloop (3.79 Å); the partners stand in one ribonucleoprotein particle

Row | Substance | binding [1] | binding [2]
1 | Rio2 (endogenous) (from UniProt P40160 1-425) (enzyme) | binds | binds
2 | Rio2.D253A (from UniProt P40160 1-425) (enzyme) | binds | 
